Experimental data taken from PubChem BioAssay AID540303 (National Center for Advancing Translational Sciences (NCATS), 2011).
In all, about 330,000 compounds went through this assay and about 1,000 (0.3%) were called active. This list was built around the results that the source calls inconclusive (neither active nor inactive); the mix of calls is not that of the screen. Calls follow the shape of the dose curve; as a rule, active = well fitted inhibition curve with a large enough effect; inconclusive = small, poorly fitted or top-dose-only effect; inactive = no such curve, though single readings can be large or run the other way; tested in mouse RAW 264.7 cells. A potency beside an inconclusive call is a rough fit, not a confirmed value.

test: qHTS for Inhibitors of Cell Surface uPA Generation; conditions: cell surface uPA generation assay; series mostly up to 38.3 µM; activity change, negative = inhibition: at the top concentration; also: nearly all actives have a fitted effect of over 55% in size
Method in brief: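 Intracellular ATP by ATPlite luminescence serves as read-out: inhibited cell-surface uPA generation prevents LF translocation, preserving ATP. Murine RAW 264.7 macrophages were treated 24 h at 37 C with five-fold serial dilutions, up to 38.3 uM final.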
% is scaled to controls: 0 for no effect and ±100 for the full control effect; potency is read from the fitted curve at half-maximal effect.

SMILES | Potency | activity change, negative = inhibition
C[C@H]1C/C=C/[C@H]2[C@H](O)[C@H](C)[C@@](C)(O)[C@H]3[C@H](Cc4ccccc4)NC(=O)[C@]32[C@H](O)/C=C/[C@](C)(O)C1 | inconclusive: 12.6 µM [inhibitor, partial curve, poor fit] | –
CCC(=NCCc1ccccc1)c1c(O)[nH]c(=O)[nH]c1=O | inconclusive: 6.31 µM [inhibitor, partial curve, poor fit] | –
O=C(O)CCCc1ccc(N(CCCl)CCCl)cc1 | inconclusive: 7.08 µM [inhibitor, partial curve, poor fit] | –
CCO[C@@H]1OC(C(=O)NCc2ccccc2)=C[C@H](c2csc3ccccc23)[C@H]1CCCO | inconclusive: 12.6 µM [inhibitor, single point] | –
Cc1ccc2c(c1)C1CN(C)CCC1N2C(=O)c1cccs1 (stereo unspecified) | – | inactive: -1.6%
COC(=O)C1=C(c2ccc(-c3ccccc3)c(F)c2)C[C@@H]2CC[C@H]1N2C(=O)NCCOc1ccccc1 | inconclusive: 12.6 µM [inhibitor, single point] | –
C=CCCC1(C2=CCCCC2)C(=O)NC(=O)NC1=O | – | inactive: 4.6%
COc1cc(OC)cc(-c2nnc(NC(=O)CCS(=O)(=O)c3ccccc3)o2)c1 | inconclusive: 10 µM [inhibitor, single point] | –
COC(=O)N1C(=O)[C@@](Cc2ccccc2)(c2ccccc2)N1C(=O)OC | inconclusive: 6.31 µM [inhibitor, partial curve, poor fit] | –
Cc1cccc(NC(=O)c2nc[nH]c2C(=O)N[C@@H](CCCCNC(=O)OC(C)(C)C)C(=O)OC(C)(C)C)c1 | inconclusive: 12.6 µM [inhibitor, single point] | –
CN(CCc1ccccc1)C(=O)c1ccc(NC(=O)Cc2ccc([N+](=O)[O-])cc2)cc1 | inconclusive: 8.91 µM [inhibitor, single point] | –
Cc1ccc(-n2c(C)nc3ccccc3c2=O)cc1C | inconclusive: 12.6 µM [inhibitor, single point] | –
OC[C@H]1O[C@@H](n2cnc3cc(Cl)c(Cl)cc32)[C@H](O)[C@@H]1O | active: 8.91 µM | –
COc1ccc2c(c1)OC[C@H]1[C@H]2N2C(=O)c3ccc(F)cc3NC(=O)[C@@]2(C)[C@H]1c1ccccc1 | inconclusive: 12.6 µM [inhibitor, single point] | –
COCCCNC(=O)C[C@H]1C[C@H](C(=O)N2CCCCC2)[C@@]2(CCc3ccccc3)c3[nH]c4cc(-c5ccco5)ccc4c3CCN2C1=O | inconclusive: 28.2 µM [inhibitor, single point] | –
CCN1CCN(Cc2ccc(NC(=O)c3cc(NC(=O)c4cncc(-c5cccs5)c4)cc(OC)c3)cc2C(F)(F)F)CC1 | – | inactive: 42.2%
CC(=O)O[C@@H]1/C=C/[C@](C)(O)C[C@@H](C)C/C=C/[C@H]2[C@H](O)C(C)=C(C)[C@H]3[C@H](Cc4ccccc4)NC(=O)[C@@]123 | inconclusive: 0.224 µM [inhibitor, partial curve, poor fit] | –
O=c1[nH]c(=O)n(-c2ccccc2F)c(O)c1/C=C1\C=Nc2ccccc21 | – | inactive: 13.3%

Part of the list above, as a markdown table:

| SMILES | Potency | activity change, negative = inhibition |
| --- | --- | --- |
| Cc1ccc(-n2c(C)nc3ccccc3c2=O)cc1C | inconclusive: 12.6 µM [inhibitor, single point] | – |
| O=c1[nH]c(=O)n(-c2ccccc2F)c(O)c1/C=C1\C=Nc2ccccc21 | – | inactive: 13.3% |

Going on with the list:

SMILES | Potency | activity change, negative = inhibition
CC1CCCCN1Cc1ccc(Cl)nc1 (stereo unspecified) | – | inactive: 0.489%
COc1ccc2[nH]c3c(=O)n(/N=C/[C@H]4C(C)C=C(C)CC4C)c(=O)[nH]c3c2c1 (stereo partly specified) | inconclusive: 10 µM [inhibitor, single point] | –
Cc1ccc(NC(=O)c2ccc(S(=O)(=O)N(C)c3ccccc3)cc2)cc1S(=O)(=O)N1CCOCC1 | inconclusive: 12.6 µM [inhibitor, single point] | –
CN(C)C(=O)C(CCN1CCC(O)(c2ccc(Cl)cc2)CC1)(c1ccccc1)c1ccccc1 | inconclusive: 6.31 µM [inhibitor, single point] | –
COC(=O)C1=C(c2ccc(-c3ccccc3)c(F)c2)C[C@@H]2CC[C@H]1N2C(=O)NCCOc1ccccc1Cl | inconclusive: 12.6 µM [inhibitor, single point] | –
COc1cc(C(=O)NC2CCN(C)CC2)ccc1Nc1ncc2c(n1)N(C1CCCC1)CCC(=O)N2C(C)C | inconclusive: 11.2 µM [inhibitor, partial curve, poor fit] | –
COc1ccc(C2=CC(c3ccc(OC)c(OC)c3)c3c(c4ccccc4oc3=O)O2)cc1OC (stereo unspecified) | inconclusive: 3.16 µM [inhibitor, partial curve, poor fit] | –
C[C@]12C=CC(=O)C=C1C=C[C@@H]1C2CC[C@]2(C)C(=O)CCC12 (stereo partly specified) | inconclusive: 28.2 µM [inhibitor, single point] | –
COC(=O)C1=C(c2cccc(OCc3ccccc3)c2)C[C@@H]2CC[C@H]1N2C(=O)NCc1cccc(OC)c1 | inconclusive: 12.6 µM [inhibitor, single point] | –
CCOC(=O)C1(c2ccccc2)CCN(CC(O)c2ccc(NC(C)=O)cc2)CC1 (stereo unspecified) | – | inactive: -1.41%
Cc1ccc(N2C(=O)NC(=O)/C(=C/c3ccc(-c4ccc(C(=O)O)c(Cl)c4)o3)C2=O)cc1 | – | inactive: 8.06%
C[C@H]1CN([C@@H](C)CO)C(=O)c2cccc(NC(=O)Nc3ccc(C(F)(F)F)cc3)c2O[C@@H]1CN(C)C(=O)Nc1ccc(F)cc1 | inconclusive: 12.6 µM [inhibitor, single point] | –
Cn1c(=O)oc2cc(S(=O)(=O)N3CCC(C(=O)N4CCN(c5ccc(F)cc5)CC4)CC3)ccc21 | inconclusive: 12.6 µM [inhibitor, single point] | –
CN(C)Cc1c[nH]c2ccccc12 | inconclusive: 12.6 µM [inhibitor, single point] | –
O=C(O)c1cc(Oc2ccc(C(F)(F)F)cc2Cl)ccc1[N+](=O)[O-] | – | inactive: 9.96%
Oc1ccccc1-[n+]1c(-c2ccccc2)cc(-c2ccccc2)cc1-c1ccccc1 | inconclusive: 7.94 µM [inhibitor, single point] | –
Cc1ccsc1-c1nc(CSCC(=O)N2CCN(c3ccccc3)CC2)c(C)o1 | inconclusive: 10 µM [inhibitor, single point] | –
COC(=O)C1=C(c2ccc(OCc3ccccc3)cc2)C[C@@H]2CC[C@H]1N2C(=O)NCc1cccc(OC)c1 | inconclusive: 12.6 µM [inhibitor, single point] | –
